Assay results taken from the supplement of paper PMC10331698.
± gives the standard deviation of the averaged measurements. Most values lie at the level of the controls, where differences are scatter.

Legend:
Test in all cases: level (log10 ratio to DMSO vehicle control); higher = higher biomarker level / cell amount than vehicle control
[1] = compound: FC(F)(F)C(F)(F)C(F)(F)C(F)(F)C(F)(F)C(F)(F)C(F)(F)C(F)(F)CCS [2-(Perfluorooctyl)ethanthiol]; conditions: in DMSO
Procedure: (§1)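 BioMAP Diversity Plus panel of 12 human primary cell co-culture systems (3C, 4H, LPS, SAg, BT, BF4T, BE3C, CASM3C, HDF3CGF, KF3CT, MyoF, Mphg). Compounds were added 1 h before stimulation and left for 24 h (MyoF 48 h; BT 72 h for soluble read-outs or 6 d for IgG). Biomarkers were read by ELISA, cytotoxicity by SRB, PBMC viability and proliferation by Alamar Blue. Each well value was divided by the mean of 8 DMSO control wells on the same plate and log10 transformed; duplicate blinded samples were tested at 4 concentrations.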

[2] = compound: O=C(O)C(F)(F)C(F)(F)C(F)(F)C(F)(F)C(F)(F)C(F)(F)C(F)(F)F [Ammonium perfluorooctanoate]; conditions: 2200 nM; in DMSO
Procedure: as §1

[3] = compound: O=C(O)C(F)(F)OC(F)(F)C(F)(F)OC(F)(F)F [Perfluoro-3,6-dioxaheptanoic acid]; conditions: 2200 nM; in DMSO
Procedure: as §1

[4] = compound: C=CC(=O)OCC(F)(F)C(F)(F)C(F)(F)C(F)(F)C(F)(F)C(F)(F)C(F)(F)C(F)F [1H,1H,9H-Perfluorononyl acrylate]; conditions: 2200 nM; in DMSO
Procedure: as §1

[5] = compound: OCC(F)(F)C(F)(F)C(F)(F)C(F)(F)C(F)(F)C(F)(F)C(F)(F)C(F)(F)CO [1H,1H,10H,10H-Perfluorodecane-1,10-diol]; conditions: 2200 nM; in DMSO
Procedure: as §1

Perfluorodecanoic acid = compound: O=C(O)C(F)(F)C(F)(F)C(F)(F)C(F)(F)C(F)(F)C(F)(F)C(F)(F)C(F)(F)C(F)(F)F [Perfluorodecanoic acid]; conditions: in DMSO
Procedure: as §1

[6] = compound: O=C(O)C(F)(F)OC(F)(F)C(F)(F)OC(F)(F)C(F)(F)OC(F)(F)C(F)(F)C(F)(F)C(F)(F)F [Perfluoro-3,6,9-trioxatridecanoic acid]; conditions: 2200 nM; in DMSO
Procedure: as §1

[7] = compound: OCC(F)(F)OC(F)(F)C(F)(F)OC(F)(F)C(F)(F)OC(F)(F)CO [1H,1H,11H,11H-Perfluorotetraethylene glycol]; conditions: 2200 nM; in DMSO
Procedure: as §1

Perfluorononanoic acid = compound: O=C(O)C(F)(F)C(F)(F)C(F)(F)C(F)(F)C(F)(F)C(F)(F)C(F)(F)C(F)(F)F [Perfluorononanoic acid]; conditions: 2200 nM; in DMSO
Procedure: as §1

Perfluorooctanoic acid = compound: O=C(O)C(F)(F)C(F)(F)C(F)(F)C(F)(F)C(F)(F)C(F)(F)C(F)(F)F [Perfluorooctanoic acid]; conditions: 2200 nM; in DMSO
Procedure: as §1

[8] = compound: O=C(O)CCC(F)(C(F)(F)F)C(F)(F)F [4,4-bis(Trifluoromethyl)-4-fluoropropanoic acid]; conditions: 2200 nM; in DMSO
Procedure: as §1

[9] = compound: CCOC(=O)CC(=O)C(F)(F)C(F)(F)F [Ethyl pentafluoropropionyl acetate]; conditions: 2200 nM; in DMSO
Procedure: as §1

[10] = compound: O=C(CC(=O)C(F)(F)C(F)(F)C(F)(F)F)c1cccs1 [(Perfluorobutyryl)-2-thenoylmethane]; conditions: 2200 nM; in DMSO
Procedure: as §1

Perfluorooctanamidine = compound: N=C(N)C(F)(F)C(F)(F)C(F)(F)C(F)(F)C(F)(F)C(F)(F)C(F)(F)F [Perfluorooctanamidine]; conditions: in DMSO
Procedure: as §1

Row | Test System | level (log10) ([1]; 740 nM) | level (log10) ([1]; 2200 nM) | level (log10) [2] | level (log10) [3] | level (log10) [4] | level (log10) [5] | level (log10) (Perfluorodecanoic acid; 2200 nM) | level (log10) (Perfluorodecanoic acid; 6700 nM) | level (log10) (Perfluorodecanoic acid; 20000 nM) | level (log10) [6] | level (log10) [7] | level (log10) (Perfluorononanoic acid) | level (log10) (Perfluorooctanoic acid) | level (log10) [8] | level (log10) [9] | level (log10) [10] | level (log10) (Perfluorooctanamidine; 2200 nM) | level (log10) (Perfluorooctanamidine; 6700 nM) | level (log10) (Perfluorooctanamidine; 20000 nM) | level (log10) (Perfluorooctanamidine; 60000 nM)
1 | 3C:CXCL8/IL-8 | 0.0475 ± 0.097 | 0.0175 ± 0.047 | 0.0045 ± 0.0021 | 0.0435 ± 0.0078 | 0.008 ± 0.013 | 0.018 ± 0.071 | 0.0225 ± 0.0078 | 0.009 ± 0.013 | 0.0155 ± 0.021 | -0.0065 ± 0.019 | 0.025 ± 0.037 | 0.05 ± 0.033 | 0.054 ± 0.02 | 0.0315 ± 0.029 | 0.001 ± 0.014 | 0.007 ± 0.018 | 0.028 ± 0.027 | 0.018 ± 0.011 | 0.022 ± 0.0085 | 0.08
2 | lMphg:CCL2/MCP-1 | 0.0055 ± 0.036 | 0.0095 ± 0.039 | -0.0015 ± 0.013 | 0.0085 ± 0.022 | 0.0175 ± 0.015 | 0.009 ± 0.057 | -0.0105 ± 0.036 | 0.001 ± 0.0042 | 0.0095 ± 0.023 | 0 ± 0.0042 | -0.0115 ± 0.011 | -0.0145 ± 0.016 | 0.0155 ± 0.025 | -0.0005 ± 0.021 | 0.005 ± 0.0099 | 0.0125 ± 0.026 | 0.0005 ± 0.035 | -0.03 ± 0.016 | -0.006 ± 0.0085 | 0.021
3 | BF4T:CD90 | 0.008 ± 0.0028 | -0.009 ± 0.0028 | 0.0005 ± 0.0078 | -0.008 ± 0.0042 | 0.003 ± 0.013 | -0.013 ± 0.0028 | 0.0105 ± 0.0021 | 0.003 ± 0.0042 | -0.0955 ± 0.0064 | 0.0035 ± 0.011 | -0.0025 ± 0.0092 | -0.022 ± 0.0085 | 0.0005 ± 0.026 | -0.004 ± 0.028 | -0.0145 ± 0.026 | -0.0005 ± 0.0064 | 0.0125 ± 0.015 | 0.0025 ± 0.015 | -0.0115 ± 0.005 | 0.042
4 | BE3C:SRB | 0.005 ± 0.0028 | 0.006 ± 0.0085 | -0.0085 ± 0.005 | 0.0045 ± 0.015 | -0.0015 ± 0.00071 | 0.002 ± 0.0014 | -0.003 ± 0.0057 | -0.0245 ± 0.005 | -0.664 ± 0.021 | -0.003 ± 0.0085 | 0 ± 0.0028 | 0.008 ± 0.011 | 0.007 ± 0.018 | 0.0115 ± 0.026 | -0.0015 ± 0.0021 | -0.0035 ± 0.00071 | 0.01 ± 0.024 | -0.0075 ± 0.005 | -0.001 ± 0.016 | 0.009
5 | HDF3CGF:TIMP-2 | -0.029 ± 0.13 | -0.023 ± 0.096 | 0.005 ± 0.0085 | -0.038 ± 0.016 | -0.0225 ± 0.15 | -0.0055 ± 0.035 | -0.0055 ± 0.012 | -0.006 ± 0.028 | -0.349 ± 0.17 | -0.019 ± 0.013 | -0.01 ± 0.081 | -0.041 ± 0.095 | -0.0215 ± 0.025 | -0.0395 ± 0.064 | -0.047 ± 0.05 | -0.069 ± 0.035 | -0.008 ± 0.011 | -0.008 ± 0.027 | -0.012 ± 0.031 | -0.018
6 | SAg:CD38 | -0.0235 ± 0.028 | -0.041 ± 0.037 | -0.022 ± 0.013 | -0.012 ± 0.031 | -0.006 ± 0.0071 | -0.025 | -0.0165 ± 0.012 | -0.009 ± 0.0014 | -0.017 ± 0.0057 | 0.0025 ± 0.022 | 0.0265 ± 0.049 | 0.019 ± 0.034 | 0.002 ± 0.017 | -0.003 ± 0.028 | 0.002 ± 0.044 | -0.007 ± 0.035 | -0.006 ± 0.017 | 0.009 ± 0.017 | 0.001 ± 0.013 | -0.074
7 | CASM3C:CXCL8/IL-8 | 0.0355 ± 0.07 | 0.0135 ± 0.054 | 0.005 ± 0.0042 | 0.028 ± 0.0071 | 0.023 ± 0.0042 | 0.007 ± 0.033 | -0.013 ± 0.018 | -0.0035 ± 0.0064 | -0.006 ± 0.0028 | 0.0155 ± 0.04 | 0.0095 ± 0.016 | 0.017 ± 0.0014 | 0.0085 ± 0.0021 | 0.003 ± 0.034 | -0.008 | -0.0135 ± 0.021 | 0.026 ± 0.011 | 0.011 ± 0.017 | 0.0075 ± 0.0092 | 0.053
8 | KF3CT:TIMP-2 | -0.021 ± 0.0042 | 0.002 ± 0.047 | 0.0015 ± 0.016 | -0.05 ± 0.079 | -0.0105 ± 0.044 | -0.004 ± 0.025 | -0.034 ± 0.034 | 0.003 ± 0.03 | -0.051 ± 0.034 | 0.01 ± 0.023 | 0.0135 ± 0.032 | -0.0395 ± 0.025 | 0.007 ± 0.028 | -0.0165 ± 0.033 | 0.001 ± 0.048 | 0.0005 ± 0.013 | -0.004 ± 0.0071 | 0.01 ± 0.0014 | 0 ± 0.02 | 0.035
9 | SAg:CD69 | -0.029 ± 0.013 | 0 ± 0.0014 | -0.0155 ± 0.005 | -0.007 ± 0.0057 | 0.0025 ± 0.029 | 0.01 ± 0.03 | -0.0235 ± 0.021 | -0.0335 ± 0.015 | -0.062 ± 0.0057 | 0.0045 ± 0.016 | -0.005 ± 0.062 | -0.0215 ± 0.00071 | -0.005 | -0.009 ± 0.041 | 0.029 ± 0.028 | -0.0275 ± 0.0035 | -0.0105 ± 0.012 | 0.006 ± 0.03 | -0.0035 ± 0.019 | -0.036
10 | lMphg:SRB | -0.001 ± 0.0057 | -0.006 ± 0.0028 | -0.009 ± 0.0014 | 0.003 ± 0.0028 | -0.001 ± 0.0057 | -0.002 ± 0.0057 | -0.003 ± 0.016 | 0.009 ± 0.0085 | 0.004 ± 0.0057 | -0.0165 ± 0.0021 | -0.0105 ± 0.015 | 0.0045 ± 0.005 | 0.0055 ± 0.016 | -0.006 ± 0.0014 | -0.001 ± 0.017 | -0.0025 ± 0.005 | 0.0075 ± 0.0021 | -0.006 ± 0.016 | 0.004 ± 0.016 | 0.001
11 | LPS:IL-1alpha | -0.032 ± 0.038 | -0.093 ± 0.0042 | 0.009 ± 0.017 | -0.046 ± 0.021 | 0.0185 ± 0.023 | 0.0085 ± 0.035 | 0.0165 ± 0.018 | 0.0275 ± 0.016 | -0.0125 ± 0.0092 | -0.018 ± 0.065 | 0.007 ± 0.024 | -0.035 ± 0.018 | 0.0185 ± 0.025 | 0.0445 ± 0.0078 | -0.009 ± 0.02 | -0.0385 ± 0.023 | 0.03 ± 0.013 | 0.011 ± 0.024 | -0.0095 ± 0.049 | -0.003
12 | SAg:CCL2/MCP-1 | 0.0005 ± 0.067 | -0.0105 ± 0.025 | -0.009 ± 0.0085 | 0.021 ± 0.011 | 0.0135 ± 0.071 | 0.0145 ± 0.018 | -0.009 ± 0.02 | 0.0065 ± 0.0064 | -0.017 ± 0.0014 | 0.0125 ± 0.029 | 0.0105 ± 0.057 | 0.004 ± 0.02 | 0.009 ± 0.0014 | -0.0015 ± 0.021 | 0.016 ± 0.058 | -0.0115 ± 0.019 | 0.0045 ± 0.0064 | -0.004 ± 0.0014 | 0.0225 ± 0.005 | -0.015

Some of the entries above in another layout.
Row	Test System	level (log10) ([1]; 740 nM)	level (log10) ([1]; 2200 nM)	level (log10) [2]	level (log10) [3]	level (log10) [4]	level (log10) [5]	level (log10) (Perfluorodecanoic acid; 2200 nM)	level (log10) (Perfluorodecanoic acid; 6700 nM)	level (log10) (Perfluorodecanoic acid; 20000 nM)	level (log10) [6]	level (log10) [7]	level (log10) (Perfluorononanoic acid)	level (log10) (Perfluorooctanoic acid)	level (log10) [8]	level (log10) [9]	level (log10) [10]	level (log10) (Perfluorooctanamidine; 2200 nM)	level (log10) (Perfluorooctanamidine; 6700 nM)	level (log10) (Perfluorooctanamidine; 20000 nM)	level (log10) (Perfluorooctanamidine; 60000 nM)
1	3C:CXCL8/IL-8	0.0475 ± 0.097	0.0175 ± 0.047	0.0045 ± 0.0021	0.0435 ± 0.0078	0.008 ± 0.013	0.018 ± 0.071	0.0225 ± 0.0078	0.009 ± 0.013	0.0155 ± 0.021	-0.0065 ± 0.019	0.025 ± 0.037	0.05 ± 0.033	0.054 ± 0.02	0.0315 ± 0.029	0.001 ± 0.014	0.007 ± 0.018	0.028 ± 0.027	0.018 ± 0.011	0.022 ± 0.0085	0.08
7	CASM3C:CXCL8/IL-8	0.0355 ± 0.07	0.0135 ± 0.054	0.005 ± 0.0042	0.028 ± 0.0071	0.023 ± 0.0042	0.007 ± 0.033	-0.013 ± 0.018	-0.0035 ± 0.0064	-0.006 ± 0.0028	0.0155 ± 0.04	0.0095 ± 0.016	0.017 ± 0.0014	0.0085 ± 0.0021	0.003 ± 0.034	-0.008	-0.0135 ± 0.021	0.026 ± 0.011	0.011 ± 0.017	0.0075 ± 0.0092	0.053
